For some of these results: Strings that start with PEPTIDE1 are HELM notation: dots part the residues, brackets hold end groups and non-standard residues.
Columns and labels:
[1] = general procedure: Fmoc solid-phase peptide synthesis; Fmoc-Rink amide-MBHA resin; Sieber resin for reduced-bond analogues; conditions: for step yield: late stage modification step; for isolated yield: whole synthesis
[2] = general procedure: Fmoc solid-phase peptide synthesis; Fmoc-Rink amide-MBHA resin; conditions: whole synthesis
[3] = general procedure: Fmoc solid-phase peptide synthesis; Sieber resin; conditions: whole synthesis
[4] = general procedure: Fmoc solid-phase peptide synthesis; Fmoc-Rink Amide MBHA resin; conditions: whole synthesis

**Q.** For “Lu-LW01090: DOTA-Pip-D-Phe-Gln-Trp-Ala-Val-NMe-Gly-His-Leu-ψ-Thz-NH2”, which step yield [1] is on record?
**A.** 47%

**Q.** Which isolated yield [1] does the source give for “PEPTIDE1{[DOTA].[PipAc].[dTpi].Q.W.A.V.G.H.[LeuR].[Thz].[am]}$$$$V2.0” here?
**A.** 38%

**Q.** With “Ga-LW01107: DOTA-Pip-D-Phe-Gln-Trp-Ala-Val-Gly-NMe-His-Leu-Thz-NH2” as the substance, how does the step yield [1] read?
**A.** 73%

**Q.** For “PEPTIDE1{[dF].Q.[Trp(2-Me)].A.V.G.H.L.[Thz].[am]}$$$$V2.0”, which isolated yield [1] is on record?
**A.** 23%

**Q.** Which isolated yield [2] does the source give for “DOTA-Pip-D-Phe-Gln-Trp-Ala-Val-Gly-His-Phe-Thz-NH2” here?
**A.** 31%

**Q.** With “DOTA-Pip-D-Phe-Gln-αMe-Trp-Ala-Tle-Gly-His-LeuψThz-NH2” as the substance, how does the isolated yield [3] read?
**A.** 7.7%

**Q.** With “DOTA-Pip-D-Phe-Gln-Trp-Ala-Val-N-MeGly-His-LeuψPro-NH2” as the substance, how does the isolated yield [3] read?
**A.** 37%

**Q.** With “D-Phe-Gln-Trp-Ala-Val-Gly-His-Leu-Thz-NH2” as the substance, how does the isolated yield [1] read?
**A.** 41%

**Q.** Which isolated yield [3] does the source give for “DOTA-Pip-D-Phe-Gln-Trp-Ala-Tle-Gly-His-LeuψThz-NH2” here?
**A.** 32%

**Q.** With “DOTA-Pip-D-Phe-Gln-7-F-Trp-Ala-Val-Gly-His-Leu-Thz-NH2” as the substance, how does the isolated yield [1] read?
**A.** 33%

**Q.** For “DOTA-Pip-D-Phe-Gln-Trp-Ala-Tle-Gly-His-Leu-Thz-NH2”, which isolated yield [1] is on record?
**A.** 26%

**Q.** For “DOTA- Pip-D-Phe-Gln-5-Me-Trp-Ala-Val-Gly-His-Leu-Thz-NH2”, which isolated yield [1] is on record?
**A.** 19%

**Q.** With “Ga-LW02021: DOTA-Pip-D-Phe-Gln-7-F-Trp-Ala-Val-Gly-His-Leu-Thz-NH2” as the substance, how does the step yield [1] read?
**A.** 82%

**Q.** For “Ga-LW01029: DOTA-Pip-D-2-Nal-Gln-Trp-Ala-Val-Gly-H is-Leu-Thz-NH2”, which step yield [1] is on record?
**A.** 63%

**Q.** With “DOTA-Pip-D-Phe-Gln-Trp-Ala-Tle-Gly-NMe-His-Leu-Thz-NH2” as the substance, how does the isolated yield [1] read?
**A.** 11%

**Q.** With “Ga-LW01186: DOTA-Pip-D-Phe-Gln-αMe-Trp-Ala-Tle-Gly-His-LeuψThz-NH2” as the substance, how does the step yield [1] read?
**A.** 81%

**Q.** Which step yield [1] does the source give for “Ga-LW01025: DOTA-Pip-D-Phe-Gln-Trp-Ala-Val-Gly-His-Leu-Thz-NH2” here?
**A.** 82%

**Q.** For “Ga-LW02002: DOTA-Pip-D-Phe-Gln-Trp-Ala-Tle-N-Me-Gly-His-LeuψThz-NH2”, which step yield [1] is on record?
**A.** 77%

**Q.** With “DOTA-Pip-D-Phe-Gln-Trp-Ala-Val-Gly-His-Leu-Thz-NH2” as the substance, how does the isolated yield [4] read?
**A.** 30% yield

**Q.** With “DOTA-Pip-D-Phe-Gln-Trp-Ala-Tle-N-Me-Gly-His-LeuψThz-NH2” as the substance, how does the isolated yield [3] read?
**A.** 17%

**Q.** Which step yield [1] does the source give for “Ga-LW01110: DOTA-Pip-D-Phe-Gln-Trp-Ala-Tle-Gly-NMe-His-Leu-Thz-NH2” here?
**A.** 54%

**Q.** For “Ga-LW01117: DOTA-Cysteic acid-Pip-D-2-Nal-Gln-Trp-Ala-Val-Gly-His-Leu-ψ-Thz-NH2”, which step yield [1] is on record?
**A.** 57%

**Q.** Which isolated yield [4] does the source give for “DOTA-Pip-D-2-Nal-Gln-Trp-Ala-Val-Gly-His-Leu-Thz-NH2” here?
**A.** 38% yield

**Q.** For “Ga-LW02025: DOTA-Pip-D-Phe-Gln-2-Me-Trp-Ala-Val-Gly-His-Leu-Thz-NH2”, which step yield [1] is on record?
**A.** 81%

**Q.** Which isolated yield [3] does the source give for “DOTA-Pip-D-Phe-His-Trp-Ala-Val-Gly-His-LeuψThz-NH2” here?
**A.** 35%

**Q.** Which isolated yield [1] does the source give for “PEPTIDE1{[dF].Q.[Trp(5-Me)].A.V.G.H.L.[Thz].[am]}$$$$V2.0” here?
**A.** 33%

**Q.** Which isolated yield [1] does the source give for “PEPTIDE1{[DOTA].[PipAc].[dF].Q.W.A.V.G.H.[LeuR].[Thz].[am]}$$$$V2.0” here?
**A.** 34%

**Q.** For “D-Phe-Gln-Trp-Ala-Val-Gly-NMe-His-Leu-Thz-NH2”, which isolated yield [1] is on record?
**A.** 29%

**Q.** Which step yield [1] does the source give for “Ga-LW01142: DOTA-Pip-D-Phe-His-Trp-Ala-Tle-Gly-NMe-His-Leu-Thz-NH2” here?
**A.** 53%

**Q.** For “D-Phe-Gln-Trp-Ala-Tle-Gly-His-Leu-Thz-NH2”, which isolated yield [1] is on record?
**A.** 26%

**Q.** With “Ga-LW01158: DOTA-Pip-D-Phe-Gln-Trp-Ala-Tle-Gly-His-LeuψThz-NH2” as the substance, how does the step yield [1] read?
**A.** 76%

**Q.** For “Lu-LW01110: DOTA-Pip-D-Phe-Gln-Trp-Ala-Tle-Gly-NMe-His-Leu-Thz-NH2”, which step yield [1] is on record?
**A.** 88%

**Q.** With “DOTA-Cysteic acid-Pip-D-2-Nal-Gln-Trp-Ala-Val-Gly-His-Leu-ψ-Thz-NH2” as the substance, how does the isolated yield [1] read?
**A.** 14%

**Q.** Which isolated yield [1] does the source give for “DOTA-Pip-D-Phe-His-Trp-Ala-Tle-Gly-NMe-His-Leu-Thz-NH2” here?
**A.** 17%

**Q.** With “DOTA-Pip-D-Phe-Gln-2-Me-Trp-Ala-Val-Gly-His-Leu-Thz-NH2” as the substance, how does the isolated yield [1] read?
**A.** 16%

**Q.** With “Ga-LW02023: DOTA-Pip-D-Phe-Gln-5-Me-Trp-Ala-Val-Gly-His-Leu-Thz-NH2” as the substance, how does the step yield [1] read?
**A.** 84%

**Q.** With “Ga-LW01059: DOTA-Pip-D-2-Nal-Gln-Trp-Ala-Val-Gly-His-Leu-ψ-Thz-NH2” as the substance, how does the step yield [1] read?
**A.** 67%

**Q.** With “Ga-LW01102: DOTA-Pip-D-Phe-His-Trp-Ala-Val-Gly-His-LeuψThz-NH2” as the substance, how does the step yield [1] read?
**A.** 43%

**Q.** With “Ga-LW01045: DOTA-Pip-D-Phe-Gln-Trp-Ala-Val-Gly-His-Leu-ψ-Thz-NH2” as the substance, how does the step yield [1] read?
**A.** 72%

**Q.** For “LW01090: DOTA-Pip-D-Phe-Gln-Trp-Ala-Val-NMe-Gly-His-Leu-ψ-Thz-NH2”, which isolated yield [1] is on record?
**A.** 32%

**Q.** For “PEPTIDE1{[DOTA].[PipAc].[d2Nal].Q.W.A.V.G.H.[LeuR].[Thz].[am]}$$$$V2.0”, which isolated yield [1] is on record?
**A.** 49%

**Q.** With “PEPTIDE1{[dF].Q.[Trp(7-F)].A.V.G.H.L.[Thz].[am]}$$$$V2.0” as the substance, how does the isolated yield [1] read?
**A.** 24%

**Q.** Which isolated yield [1] does the source give for “DOTA-Pip-D-Phe-Gln-Trp-Ala-Val-Gly-NMe-His-Leu-Thz-NH2” here?
**A.** 19%

**Q.** With “Lu-LW01142: DOTA-Pip-D-Phe-His-Trp-Ala-Tle-Gly-NMe-His-Leu-Thz-NH2” as the substance, how does the step yield [1] read?
**A.** 61%

**Q.** With “Ga-LW01090: DOTA-Pip-D-Phe-Gln-Trp-Ala-Val-NMe-Gly-His-Leu-ψ-Thz-NH2” as the substance, how does the step yield [1] read?
**A.** 75%

**Q.** Which step yield [1] does the source give for “Ga-LW01108: DOTA-Pip-D-Phe-Gln-Trp-Ala-Tle-Gly-His-Leu-Thz-NH2” here?
**A.** 59%

Source: US12246076B2 (PROVINCIAL HEALTH SERVICES AUTHORITY, priority 2022, dated 2025)
